Test results: PMC12176620, “Structure of the ATP-driven methyl-coenzyme M reductase activation complex” (Nature, 2025)
Results are given in words; binding and its absence hold for the method and conditions named. For some of these results: Binding can be weak; no strength is given.

T1: Twin-Strep McrC (Methanococcus maripaludis (endogenous in M. maripaludis JJ Δupt)) (UniProt Q6LWZ7)
T1 sequence: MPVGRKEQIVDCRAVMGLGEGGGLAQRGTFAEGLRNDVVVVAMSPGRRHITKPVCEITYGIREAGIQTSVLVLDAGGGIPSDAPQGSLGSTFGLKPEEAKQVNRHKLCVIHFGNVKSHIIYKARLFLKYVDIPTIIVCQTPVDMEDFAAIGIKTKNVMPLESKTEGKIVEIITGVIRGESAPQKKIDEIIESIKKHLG

T2: McrB (Methanococcus maripaludis (endogenous in M. maripaludis JJ Δupt)) (UniProt Q6LWZ9)
T2 sequence: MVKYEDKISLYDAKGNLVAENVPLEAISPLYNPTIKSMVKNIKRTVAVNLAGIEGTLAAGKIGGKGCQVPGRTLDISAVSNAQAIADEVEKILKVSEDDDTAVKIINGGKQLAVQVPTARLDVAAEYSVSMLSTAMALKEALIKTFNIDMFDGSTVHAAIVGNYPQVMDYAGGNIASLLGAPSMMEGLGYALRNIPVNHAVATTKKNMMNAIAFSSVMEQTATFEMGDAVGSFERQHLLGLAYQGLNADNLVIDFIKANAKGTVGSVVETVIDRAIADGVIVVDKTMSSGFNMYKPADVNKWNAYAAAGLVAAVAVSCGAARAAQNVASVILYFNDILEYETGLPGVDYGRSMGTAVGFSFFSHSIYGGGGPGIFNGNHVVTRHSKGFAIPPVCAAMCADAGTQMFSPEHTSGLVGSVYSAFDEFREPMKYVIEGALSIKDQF


Key:
Test in all cases: cryo-EM structure; single-particle analysis of the Strep-Tactin-purified MCR activation complex (1.2 mg/ml), vitrified anaerobically 'as isolated' (maps with A2 at 2.5 Å and without A2 at 2.7 Å) and after 30 min with 5 mM ATP and the CH4 reaction components except Ti(III) citrate (2.1 Å, locally 1.8 Å); both purified
[1] = biological target: T1, Twin-Strep McrC (Methanococcus maripaludis (endogenous in M. maripaludis JJ Δupt))
[2] = biological target: T2, McrB (Methanococcus maripaludis (endogenous in M. maripaludis JJ Δupt))
[3] = biological target: methanogenic marker protein Mmp7 (Methanococcus maripaludis (endogenous in M. maripaludis JJ Δupt))
[4] = biological target: methanogenic marker protein Mmp3 (Methanococcus maripaludis (endogenous in M. maripaludis JJ Δupt))
[5] = biological target: McrG (Methanococcus maripaludis (endogenous in M. maripaludis JJ Δupt))
[6] = biological target: methanogenic marker protein Mmp17 (Methanococcus maripaludis (endogenous in M. maripaludis JJ Δupt))

binding [1] | binding [2] | binding [3] | binding [4] | binding [5] | binding [6] | Molecule
binds | – | – | – | – | – | methanogenic marker protein Mmp7
binds | binds | – | – | – | – | McrG
– | – | no binding | no binding | binds | no binding | A2 component (protein, UniProt Q6LZK7 1-531) MLLLEVKNVSKSYGDTEVLKNVSFELNEGDVMGVLGRSGAGKSVLLHMLRGMEGYEPTSGQIIYHVAYCPHCENVEAPSQVGKKCECETEYVAKSVDFWNNNEITYALKKKIAIMLQRTFALYGEKTVAENIMEALTAAGYEGKDATEWALNLIKMVKLEHRVAHISRDLSGGEKQRVVLARQIAKNPVIFLADEPTGTLDPKTAKFVHNALTEAVIKHNIAMVITSHWPEVIEELCQKAIWLDKGEMRLVGESKHVVEEFMKTVTSMKEFEKVEVKDELLKLENVEKRYVSVDRGIVKAVDGIDVSINEKEIFGLVGVSGAGKTTLSKIIAAVIPPSKGNYEFRLADEWVDMTKVGPLYRGRAKRYIGMLFQEYSLYPHRTILYNLTESIGLEMPGEFAKMKAEHTLVSVGFTEEEAENMLEKHPSELSVGEKHRVALAQVLIREPHLILLDEPTGTMDPITRNQVAESIQKSRSELDQTYVIVSHDMDFVLNVCDRAALVRGGKIIKTGKPDEIVKILSEEEKDEMIGH
